The values below come from article PMC12216052.

Protein sequences, listed by entry. Tags and fused reporters are not part of them. Residues count along the entry.
UniProt P46531, residues 20-1426: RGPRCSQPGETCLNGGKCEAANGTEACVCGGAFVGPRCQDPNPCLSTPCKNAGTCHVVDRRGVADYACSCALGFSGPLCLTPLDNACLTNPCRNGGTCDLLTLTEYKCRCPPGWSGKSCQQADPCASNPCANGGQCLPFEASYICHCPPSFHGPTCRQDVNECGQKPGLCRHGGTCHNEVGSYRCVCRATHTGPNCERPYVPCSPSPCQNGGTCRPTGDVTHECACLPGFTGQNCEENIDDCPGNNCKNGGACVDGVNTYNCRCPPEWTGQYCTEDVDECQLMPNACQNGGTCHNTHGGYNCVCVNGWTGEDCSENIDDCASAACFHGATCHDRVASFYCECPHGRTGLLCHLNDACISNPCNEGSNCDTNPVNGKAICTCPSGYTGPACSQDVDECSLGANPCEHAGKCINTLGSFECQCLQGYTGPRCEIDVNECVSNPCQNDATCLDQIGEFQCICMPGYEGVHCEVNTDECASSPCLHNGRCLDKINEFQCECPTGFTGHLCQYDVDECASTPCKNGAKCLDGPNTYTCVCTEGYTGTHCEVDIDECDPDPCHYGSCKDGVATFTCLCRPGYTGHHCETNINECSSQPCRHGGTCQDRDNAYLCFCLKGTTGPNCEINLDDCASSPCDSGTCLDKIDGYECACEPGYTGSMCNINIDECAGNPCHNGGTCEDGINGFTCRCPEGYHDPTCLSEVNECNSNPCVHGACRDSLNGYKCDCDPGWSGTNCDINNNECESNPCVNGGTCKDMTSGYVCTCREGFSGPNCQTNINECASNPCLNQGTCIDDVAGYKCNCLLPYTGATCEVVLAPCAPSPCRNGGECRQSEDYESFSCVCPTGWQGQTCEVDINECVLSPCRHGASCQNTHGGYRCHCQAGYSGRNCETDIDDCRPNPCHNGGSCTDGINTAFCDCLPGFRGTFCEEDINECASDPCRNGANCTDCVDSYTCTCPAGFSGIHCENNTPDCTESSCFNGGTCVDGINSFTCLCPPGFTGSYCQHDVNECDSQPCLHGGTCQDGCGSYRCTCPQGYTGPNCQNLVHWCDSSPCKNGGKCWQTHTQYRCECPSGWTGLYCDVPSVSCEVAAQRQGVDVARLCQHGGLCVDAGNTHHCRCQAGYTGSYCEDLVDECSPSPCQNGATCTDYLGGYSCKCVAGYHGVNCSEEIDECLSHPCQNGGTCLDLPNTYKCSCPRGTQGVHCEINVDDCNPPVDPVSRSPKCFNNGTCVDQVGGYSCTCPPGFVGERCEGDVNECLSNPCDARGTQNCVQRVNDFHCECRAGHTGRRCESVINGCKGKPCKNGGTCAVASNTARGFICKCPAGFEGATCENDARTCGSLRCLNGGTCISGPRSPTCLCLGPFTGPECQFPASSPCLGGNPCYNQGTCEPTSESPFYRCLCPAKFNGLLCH
UniProt P27037: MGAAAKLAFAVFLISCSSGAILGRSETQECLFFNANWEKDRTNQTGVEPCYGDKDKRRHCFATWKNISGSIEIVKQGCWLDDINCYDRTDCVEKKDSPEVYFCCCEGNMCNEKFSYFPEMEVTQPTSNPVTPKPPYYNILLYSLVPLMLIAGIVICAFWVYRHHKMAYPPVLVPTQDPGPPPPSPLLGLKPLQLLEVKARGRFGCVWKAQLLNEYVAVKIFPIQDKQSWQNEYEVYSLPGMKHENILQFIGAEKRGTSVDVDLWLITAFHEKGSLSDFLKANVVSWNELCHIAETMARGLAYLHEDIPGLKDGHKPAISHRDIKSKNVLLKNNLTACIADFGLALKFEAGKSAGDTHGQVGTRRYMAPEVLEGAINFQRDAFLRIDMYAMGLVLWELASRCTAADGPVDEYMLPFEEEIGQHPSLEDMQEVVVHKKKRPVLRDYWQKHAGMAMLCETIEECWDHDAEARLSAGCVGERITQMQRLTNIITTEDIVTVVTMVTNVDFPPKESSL
UniProt P80370, residues 24-260: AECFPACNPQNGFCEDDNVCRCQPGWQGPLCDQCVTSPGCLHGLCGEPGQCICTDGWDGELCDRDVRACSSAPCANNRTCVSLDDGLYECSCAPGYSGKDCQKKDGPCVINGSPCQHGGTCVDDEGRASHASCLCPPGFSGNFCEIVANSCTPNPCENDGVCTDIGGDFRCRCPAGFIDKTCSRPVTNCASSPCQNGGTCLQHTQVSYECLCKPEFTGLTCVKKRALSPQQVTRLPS

These are yes or no findings as the source states them, for the method shown.

For assay [1], the target named is Notch1(EGF1-36) (amino acids 20-1426) (human) (UniProt P46531). The experiment in a line: condition: concentrations greater than 10 micromolar; SPR; ~300 RU biotinylated NOTCH1(EGF1-36) on a streptavidin chip; DLL4(N-5) or DLK1 ECD as analyte; HBS-P20-BSA with 1 mM CaCl2; reference: ZNRF3 ECD; both purified.
Assay [2] has as its target ACVR2A with Fc-His tags (human) (UniProt P27037). The experiment in a line: SPR; ~400 RU wild-type or mutant ACVR2B or ACVR2A with Fc-His tags amine-coupled on CM5; DLK1 ECD or DLK1 EGF5-6 as analyte; HBS with 0.005% P20 and 0.1% BSA, 20 °C; steady state, 1:1 Langmuir model; reference: Tim-3; both purified. (SPR reads the build-up and loss of mass on a sensor chip optically.)

On to “Human DLK1(ECD) (amino acids 24-260) (from UniProt P80370 24-260) (domain or fragment)”, for which the binding entry in assay [1] and in assay [2] was “no binding” throughout.
